# In the supplement of paper PMC10849652:
# By UniProt entry, the sequences of proteins in these tests, tags left out. Where a name states a change or a piece, a line headed by the entry shows the natural chain unless it says otherwise.
# UniProt Q9H0E9, whole entry, looked up: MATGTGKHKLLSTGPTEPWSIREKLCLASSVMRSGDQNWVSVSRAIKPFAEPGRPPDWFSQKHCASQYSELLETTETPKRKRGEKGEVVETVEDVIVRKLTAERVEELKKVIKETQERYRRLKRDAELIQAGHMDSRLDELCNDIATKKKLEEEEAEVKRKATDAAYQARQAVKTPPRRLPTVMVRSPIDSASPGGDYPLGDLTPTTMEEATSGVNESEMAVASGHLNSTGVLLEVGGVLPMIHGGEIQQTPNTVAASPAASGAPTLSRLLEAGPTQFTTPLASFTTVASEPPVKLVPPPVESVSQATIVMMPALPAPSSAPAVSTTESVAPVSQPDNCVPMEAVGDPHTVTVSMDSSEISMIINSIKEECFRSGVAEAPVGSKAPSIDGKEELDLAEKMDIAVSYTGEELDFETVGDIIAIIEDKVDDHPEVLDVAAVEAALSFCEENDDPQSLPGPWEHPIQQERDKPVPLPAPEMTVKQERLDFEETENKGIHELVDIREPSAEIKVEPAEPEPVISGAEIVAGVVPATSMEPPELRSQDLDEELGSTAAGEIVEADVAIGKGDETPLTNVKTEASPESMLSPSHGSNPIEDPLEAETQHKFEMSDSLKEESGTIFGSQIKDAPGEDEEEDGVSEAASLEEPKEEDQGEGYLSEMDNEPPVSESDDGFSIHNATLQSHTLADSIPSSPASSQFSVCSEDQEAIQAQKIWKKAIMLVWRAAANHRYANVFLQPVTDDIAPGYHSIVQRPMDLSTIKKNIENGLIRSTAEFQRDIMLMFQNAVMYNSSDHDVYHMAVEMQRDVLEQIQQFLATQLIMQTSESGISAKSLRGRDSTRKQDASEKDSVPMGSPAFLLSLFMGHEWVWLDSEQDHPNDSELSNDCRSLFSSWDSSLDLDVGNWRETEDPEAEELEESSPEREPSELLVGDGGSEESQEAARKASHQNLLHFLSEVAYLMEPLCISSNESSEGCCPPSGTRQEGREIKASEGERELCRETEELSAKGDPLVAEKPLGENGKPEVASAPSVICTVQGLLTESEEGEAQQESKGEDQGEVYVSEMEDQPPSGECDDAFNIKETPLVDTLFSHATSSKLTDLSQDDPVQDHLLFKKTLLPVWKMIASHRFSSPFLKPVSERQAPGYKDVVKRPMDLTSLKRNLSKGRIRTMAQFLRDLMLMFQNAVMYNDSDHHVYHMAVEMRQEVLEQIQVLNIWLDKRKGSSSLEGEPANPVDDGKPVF
# UniProt Q99933: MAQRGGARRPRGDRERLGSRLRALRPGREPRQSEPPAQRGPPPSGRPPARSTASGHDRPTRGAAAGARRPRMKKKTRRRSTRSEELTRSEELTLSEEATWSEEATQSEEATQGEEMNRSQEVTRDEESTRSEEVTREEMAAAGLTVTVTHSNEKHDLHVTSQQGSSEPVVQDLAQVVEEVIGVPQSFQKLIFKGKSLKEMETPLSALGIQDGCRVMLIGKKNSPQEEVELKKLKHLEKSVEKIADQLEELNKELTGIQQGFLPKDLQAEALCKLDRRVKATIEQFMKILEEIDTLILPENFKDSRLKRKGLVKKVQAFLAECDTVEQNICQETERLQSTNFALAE
# UniProt Q8TDH9: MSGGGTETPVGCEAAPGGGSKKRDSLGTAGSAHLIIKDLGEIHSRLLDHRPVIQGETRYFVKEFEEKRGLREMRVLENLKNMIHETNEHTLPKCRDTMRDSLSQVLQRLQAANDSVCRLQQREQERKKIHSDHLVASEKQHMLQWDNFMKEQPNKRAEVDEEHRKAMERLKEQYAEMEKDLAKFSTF
# UniProt Q9UL15: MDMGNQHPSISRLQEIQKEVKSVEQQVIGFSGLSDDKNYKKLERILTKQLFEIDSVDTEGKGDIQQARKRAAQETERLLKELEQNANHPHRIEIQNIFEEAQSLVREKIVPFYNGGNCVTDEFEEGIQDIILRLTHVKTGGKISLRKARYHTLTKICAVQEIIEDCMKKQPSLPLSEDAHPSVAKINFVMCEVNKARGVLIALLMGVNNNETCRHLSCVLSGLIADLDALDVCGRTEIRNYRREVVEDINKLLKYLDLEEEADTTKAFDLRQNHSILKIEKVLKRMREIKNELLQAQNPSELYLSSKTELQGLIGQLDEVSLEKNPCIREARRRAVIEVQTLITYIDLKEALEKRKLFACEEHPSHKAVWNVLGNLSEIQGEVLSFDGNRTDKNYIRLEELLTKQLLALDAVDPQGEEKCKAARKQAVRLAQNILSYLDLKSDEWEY
# UniProt Q92843: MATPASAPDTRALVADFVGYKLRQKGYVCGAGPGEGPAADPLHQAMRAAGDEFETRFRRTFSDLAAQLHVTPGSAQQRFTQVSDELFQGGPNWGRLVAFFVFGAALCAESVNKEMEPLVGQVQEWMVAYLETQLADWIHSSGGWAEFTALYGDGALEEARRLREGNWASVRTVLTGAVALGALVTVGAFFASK
# UniProt Q8TDN6: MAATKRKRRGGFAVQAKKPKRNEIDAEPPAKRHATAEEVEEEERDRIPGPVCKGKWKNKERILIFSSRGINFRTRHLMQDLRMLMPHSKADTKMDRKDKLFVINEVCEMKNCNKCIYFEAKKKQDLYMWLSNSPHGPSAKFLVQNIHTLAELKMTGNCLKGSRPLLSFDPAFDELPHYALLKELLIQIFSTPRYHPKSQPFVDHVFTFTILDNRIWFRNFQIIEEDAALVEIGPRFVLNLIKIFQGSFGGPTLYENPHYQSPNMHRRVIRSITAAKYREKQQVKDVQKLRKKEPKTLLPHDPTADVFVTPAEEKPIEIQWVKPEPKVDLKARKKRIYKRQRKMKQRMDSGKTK
# UniProt Q96KE9: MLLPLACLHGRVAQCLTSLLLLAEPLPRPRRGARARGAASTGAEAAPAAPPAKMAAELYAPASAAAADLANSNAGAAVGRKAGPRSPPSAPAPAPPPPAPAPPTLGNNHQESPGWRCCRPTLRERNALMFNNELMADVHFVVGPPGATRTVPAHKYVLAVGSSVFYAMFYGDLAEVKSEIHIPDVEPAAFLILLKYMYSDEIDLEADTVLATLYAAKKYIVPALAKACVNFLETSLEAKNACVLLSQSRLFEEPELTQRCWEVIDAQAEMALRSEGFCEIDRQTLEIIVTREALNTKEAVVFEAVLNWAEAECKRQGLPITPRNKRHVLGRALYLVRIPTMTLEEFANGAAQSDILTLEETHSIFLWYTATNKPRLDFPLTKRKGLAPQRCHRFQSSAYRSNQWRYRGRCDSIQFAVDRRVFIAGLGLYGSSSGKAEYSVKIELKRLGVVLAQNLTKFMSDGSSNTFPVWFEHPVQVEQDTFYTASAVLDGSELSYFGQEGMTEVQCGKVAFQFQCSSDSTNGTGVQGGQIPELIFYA
# UniProt Q6W2J9: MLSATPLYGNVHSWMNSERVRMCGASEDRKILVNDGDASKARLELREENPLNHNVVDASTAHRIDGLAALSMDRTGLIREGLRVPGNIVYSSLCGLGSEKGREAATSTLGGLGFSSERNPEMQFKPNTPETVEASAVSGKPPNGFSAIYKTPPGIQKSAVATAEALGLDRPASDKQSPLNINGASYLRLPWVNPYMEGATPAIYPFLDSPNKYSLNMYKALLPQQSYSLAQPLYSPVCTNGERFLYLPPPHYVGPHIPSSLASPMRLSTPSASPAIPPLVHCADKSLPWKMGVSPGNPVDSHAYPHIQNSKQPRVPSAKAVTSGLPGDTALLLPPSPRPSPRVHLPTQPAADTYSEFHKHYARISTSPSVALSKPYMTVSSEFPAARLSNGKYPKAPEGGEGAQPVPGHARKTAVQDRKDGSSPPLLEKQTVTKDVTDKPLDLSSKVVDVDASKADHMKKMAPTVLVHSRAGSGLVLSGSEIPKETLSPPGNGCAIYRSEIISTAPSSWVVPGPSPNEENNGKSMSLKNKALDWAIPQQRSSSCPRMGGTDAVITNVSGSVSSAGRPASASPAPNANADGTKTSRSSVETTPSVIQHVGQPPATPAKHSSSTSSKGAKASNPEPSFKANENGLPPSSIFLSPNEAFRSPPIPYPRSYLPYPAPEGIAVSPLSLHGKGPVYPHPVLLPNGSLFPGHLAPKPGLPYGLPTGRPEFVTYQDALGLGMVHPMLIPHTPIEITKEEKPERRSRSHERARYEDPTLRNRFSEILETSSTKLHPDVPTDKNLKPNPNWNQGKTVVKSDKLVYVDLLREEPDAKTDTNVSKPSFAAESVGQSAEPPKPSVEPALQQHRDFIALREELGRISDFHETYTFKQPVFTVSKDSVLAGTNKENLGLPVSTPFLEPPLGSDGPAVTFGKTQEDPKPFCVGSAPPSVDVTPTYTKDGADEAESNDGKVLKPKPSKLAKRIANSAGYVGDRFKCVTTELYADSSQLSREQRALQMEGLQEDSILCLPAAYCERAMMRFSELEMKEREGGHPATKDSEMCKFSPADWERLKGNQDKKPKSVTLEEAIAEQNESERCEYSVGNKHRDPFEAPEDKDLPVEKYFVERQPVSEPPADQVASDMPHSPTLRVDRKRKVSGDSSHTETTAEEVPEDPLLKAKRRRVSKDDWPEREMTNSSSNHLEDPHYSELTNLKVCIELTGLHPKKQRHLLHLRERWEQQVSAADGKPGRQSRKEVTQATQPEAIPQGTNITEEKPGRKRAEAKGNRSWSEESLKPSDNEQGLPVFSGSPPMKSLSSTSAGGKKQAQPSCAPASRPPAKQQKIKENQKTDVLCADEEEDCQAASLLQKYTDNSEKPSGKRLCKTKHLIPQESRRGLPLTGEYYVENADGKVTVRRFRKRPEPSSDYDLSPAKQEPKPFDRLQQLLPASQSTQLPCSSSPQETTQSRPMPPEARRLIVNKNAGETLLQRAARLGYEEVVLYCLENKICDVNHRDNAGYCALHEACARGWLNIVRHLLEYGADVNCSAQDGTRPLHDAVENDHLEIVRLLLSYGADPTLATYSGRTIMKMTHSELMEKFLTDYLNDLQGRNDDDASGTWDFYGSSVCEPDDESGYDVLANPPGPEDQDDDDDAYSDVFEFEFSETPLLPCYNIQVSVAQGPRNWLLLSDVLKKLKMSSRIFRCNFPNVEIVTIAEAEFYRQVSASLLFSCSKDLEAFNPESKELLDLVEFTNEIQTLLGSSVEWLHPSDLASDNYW
# UniProt O15155: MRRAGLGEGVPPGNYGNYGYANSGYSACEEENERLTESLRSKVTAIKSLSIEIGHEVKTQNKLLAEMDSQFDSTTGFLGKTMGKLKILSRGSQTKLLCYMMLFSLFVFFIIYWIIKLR
# UniProt O15392, whole entry, looked up: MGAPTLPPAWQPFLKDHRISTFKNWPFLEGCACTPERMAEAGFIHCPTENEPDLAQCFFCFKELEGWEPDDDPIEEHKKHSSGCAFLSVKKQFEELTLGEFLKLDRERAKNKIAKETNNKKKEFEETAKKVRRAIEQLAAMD
# UniProt O75934: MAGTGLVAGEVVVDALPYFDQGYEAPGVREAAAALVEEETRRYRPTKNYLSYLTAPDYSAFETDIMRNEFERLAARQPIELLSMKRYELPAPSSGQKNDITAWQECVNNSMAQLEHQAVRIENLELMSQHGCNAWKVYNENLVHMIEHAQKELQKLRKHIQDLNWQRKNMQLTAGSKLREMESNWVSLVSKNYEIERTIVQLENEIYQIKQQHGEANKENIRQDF
# UniProt P21953: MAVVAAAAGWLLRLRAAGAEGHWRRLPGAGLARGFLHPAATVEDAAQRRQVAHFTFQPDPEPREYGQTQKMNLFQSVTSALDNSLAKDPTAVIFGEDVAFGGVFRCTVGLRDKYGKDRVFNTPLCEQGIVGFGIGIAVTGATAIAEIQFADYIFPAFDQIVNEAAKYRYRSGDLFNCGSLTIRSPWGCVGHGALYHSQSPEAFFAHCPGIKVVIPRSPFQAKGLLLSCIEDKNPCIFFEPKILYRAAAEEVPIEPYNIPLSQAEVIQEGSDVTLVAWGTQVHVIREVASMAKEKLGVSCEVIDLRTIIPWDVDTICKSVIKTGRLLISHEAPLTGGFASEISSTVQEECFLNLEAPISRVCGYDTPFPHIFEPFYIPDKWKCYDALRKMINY
# UniProt P55957: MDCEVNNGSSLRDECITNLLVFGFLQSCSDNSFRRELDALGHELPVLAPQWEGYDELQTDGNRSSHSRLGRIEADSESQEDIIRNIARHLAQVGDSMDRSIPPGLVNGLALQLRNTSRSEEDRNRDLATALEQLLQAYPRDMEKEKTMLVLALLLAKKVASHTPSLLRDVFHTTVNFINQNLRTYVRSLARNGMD
# UniProt Q6QNY0: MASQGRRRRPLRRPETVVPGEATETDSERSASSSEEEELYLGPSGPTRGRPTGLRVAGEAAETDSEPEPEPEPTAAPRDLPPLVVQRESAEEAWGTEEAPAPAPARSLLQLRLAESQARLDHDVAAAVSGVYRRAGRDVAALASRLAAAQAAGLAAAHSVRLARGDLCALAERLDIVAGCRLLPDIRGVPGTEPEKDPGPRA
# This is one part of the list.
# Compound: CC1=C(C=C(C=C1)NC(=O)C2=CC(=CC=C2)C(C)(C)C#N)NC3=CC4=C(C=C3)N=CN(C4=O)C
# Assay: log2 fold change, soluble protein after heating vs DMSO (PISA); higher = thermal stabilisation; K562 lysate, 10 uM; active = over 0.2 and 3.5 SD of the protein, either way, in both replicates (recomputed)
# In short: (§1)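 Thermal stability, expressed as log-two fold change relative to solvent controls, is given from duplicates. Crude K562 extract in PBS pH 7.4 with 1 mM MgCl2, at 1 mg/mL protein, was treated with 10 μM compound for 30 min and heated in aliquots for 3 min across 48°C-58°C. After pooling, adjustment to 0.5% NP-40 at 4°C and centrifugation at 21,000xg for 90 min, supernatant protein was measured by TMTpro 16plex LC-MS/MS with channel sums equalised.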
row,Target,log2 fold change
1,BRD8 isoform 2 (UniProt Q9H0E9),inactive: 0.012
2,BAIAP2 (UniProt Q9UQB8),inactive: 0.035
3,BAG6 isoform 3 (UniProt P46379),inactive: -0.006
4,BPTF (UniProt Q12830),inactive: 0.009
5,BAG1 (UniProt Q99933),inactive: 0.023
6,BCL7B (UniProt Q9BQE9),inactive: -0.038
7,BCLAF1 (UniProt Q9NYF8),inactive: -0.027
8,BLOC1S5 (UniProt Q8TDH9),inactive: 0.003
9,BTN2A1 (UniProt Q7KYR7),inactive: 0.064
10,BAG5 isoform 2 (UniProt Q9UL15),inactive: -0.004
11,BCL2L2 isoform 2 (UniProt Q92843),inactive: 0.015
12,BRCA1 isoform 7 (UniProt P38398),inactive: 0.041
13,BRIX1 (UniProt Q8TDN6),inactive: -0.016
14,BCL7C isoform 2 (UniProt Q8WUZ0),inactive: -0.042
15,BTBD6 (UniProt Q96KE9),inactive: 0.416
16,BCOR (UniProt Q6W2J9),inactive: 0.094
17,BORCS5 (UniProt Q969J3),inactive: 0.021

row,Target,log2 fold change
1,BPHL (UniProt Q86WA6),inactive: 0.025
2,BET1 (UniProt O15155),inactive: -0.019
3,BNIP2 (UniProt J3KN59),inactive: -0.035
4,BORCS6 (UniProt Q96GS4),inactive: 0.054
5,BIRC5 (UniProt O15392),inactive: -0.054
6,BCAR1 isoform 6 (UniProt P56945),inactive: -0.014
7,BAG2 (UniProt O95816),inactive: 0.007
8,BARD1 (UniProt Q99728),inactive: 0.096
9,BTAF1 (UniProt O14981),inactive: 0
10,BSG (UniProt P35613),inactive: -0.016
11,BCAS2 (UniProt O75934),inactive: -0.01
12,BCKDHB (UniProt P21953),inactive: -0.078
13,BTF3L4 (UniProt Q96K17),inactive: -0.009
14,BID isoform 2 (UniProt P55957),inactive: 0.031
15,BCL2L13 (UniProt Q9BXK5),inactive: -0.002
16,BCKDK (UniProt O14874),inactive: -0.088
17,BLOC1S3 (UniProt Q6QNY0),inactive: -0.008

# Compound: CC1=C(C=C(C=C1)NC(=O)C2=CC(=CC=C2)N(C)C)NC(=O)C3=CC=C(C=C3)O
# Assay: as above
# In short: as §1
row,Target,log2 fold change
1,BRD8 isoform 2 (UniProt Q9H0E9),inactive: -0.007
2,BAIAP2 (UniProt Q9UQB8),inactive: -0.03
3,BAG6 isoform 3 (UniProt P46379),inactive: 0.009
4,BPTF (UniProt Q12830),inactive: 0.057
5,BAG1 (UniProt Q99933),inactive: 0.005
6,BCL7B (UniProt Q9BQE9),inactive: 0.013
7,BCLAF1 (UniProt Q9NYF8),inactive: 0.081
8,BLOC1S5 (UniProt Q8TDH9),inactive: -0.01
9,BTN2A1 (UniProt Q7KYR7),inactive: -0.023
10,BAG5 isoform 2 (UniProt Q9UL15),inactive: 0.04
11,BCL2L2 isoform 2 (UniProt Q92843),inactive: 0.017
12,BRCA1 isoform 7 (UniProt P38398),inactive: 0.01
13,BRIX1 (UniProt Q8TDN6),inactive: -0.015
14,BCL7C isoform 2 (UniProt Q8WUZ0),inactive: 0.05
15,BTBD6 (UniProt Q96KE9),inactive: 0.03
16,BCOR (UniProt Q6W2J9),inactive: -0.018
17,BORCS5 (UniProt Q969J3),inactive: 0.034

row,Target,log2 fold change
1,BPHL (UniProt Q86WA6),inactive: -0.004
2,BET1 (UniProt O15155),inactive: 0.001
3,BNIP2 (UniProt J3KN59),inactive: 0
4,BORCS6 (UniProt Q96GS4),inactive: 0.013
5,BIRC5 (UniProt O15392),inactive: -0.008
6,BCAR1 isoform 6 (UniProt P56945),inactive: 0.006
7,BAG2 (UniProt O95816),inactive: -0.011
8,BARD1 (UniProt Q99728),inactive: -0.002
9,BTAF1 (UniProt O14981),inactive: 0.025
10,BSG (UniProt P35613),inactive: 0.019
11,BCAS2 (UniProt O75934),inactive: -0.019
12,BCKDHB (UniProt P21953),inactive: 0.071
13,BTF3L4 (UniProt Q96K17),inactive: -0.023
14,BID isoform 2 (UniProt P55957),inactive: 0.006
15,BCL2L13 (UniProt Q9BXK5),inactive: 0.016
16,BCKDK (UniProt O14874),inactive: 0.067
17,BLOC1S3 (UniProt Q6QNY0),inactive: -0.043
